Measured values as given in paper PMC5738045.
These are yes or no findings as the source states them, for the method shown. Binding seen in cells or lysates may run through a third protein. Some binding calls cover weakened binding; strength is not graded here.

Chains of the proteins cited; added tags and fusions are not shown. Residues count along the entry.
UniProt P60615, residues 22-95: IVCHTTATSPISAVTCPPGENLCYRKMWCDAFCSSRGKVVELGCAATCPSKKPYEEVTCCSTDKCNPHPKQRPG
UniProt P49582, residues 23-502: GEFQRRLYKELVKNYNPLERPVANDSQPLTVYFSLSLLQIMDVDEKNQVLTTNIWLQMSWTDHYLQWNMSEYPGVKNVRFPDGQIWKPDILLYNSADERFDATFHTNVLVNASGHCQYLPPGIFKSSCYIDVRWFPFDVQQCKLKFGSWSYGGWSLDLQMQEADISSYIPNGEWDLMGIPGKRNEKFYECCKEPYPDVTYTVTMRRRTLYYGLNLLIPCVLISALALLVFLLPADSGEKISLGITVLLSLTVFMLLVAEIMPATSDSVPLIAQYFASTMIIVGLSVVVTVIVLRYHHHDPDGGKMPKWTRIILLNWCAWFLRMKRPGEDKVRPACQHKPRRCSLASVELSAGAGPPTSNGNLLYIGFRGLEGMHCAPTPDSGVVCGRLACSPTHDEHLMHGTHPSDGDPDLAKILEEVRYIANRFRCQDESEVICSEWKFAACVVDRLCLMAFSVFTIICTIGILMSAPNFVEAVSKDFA
UniProt P36544, residues 23-502: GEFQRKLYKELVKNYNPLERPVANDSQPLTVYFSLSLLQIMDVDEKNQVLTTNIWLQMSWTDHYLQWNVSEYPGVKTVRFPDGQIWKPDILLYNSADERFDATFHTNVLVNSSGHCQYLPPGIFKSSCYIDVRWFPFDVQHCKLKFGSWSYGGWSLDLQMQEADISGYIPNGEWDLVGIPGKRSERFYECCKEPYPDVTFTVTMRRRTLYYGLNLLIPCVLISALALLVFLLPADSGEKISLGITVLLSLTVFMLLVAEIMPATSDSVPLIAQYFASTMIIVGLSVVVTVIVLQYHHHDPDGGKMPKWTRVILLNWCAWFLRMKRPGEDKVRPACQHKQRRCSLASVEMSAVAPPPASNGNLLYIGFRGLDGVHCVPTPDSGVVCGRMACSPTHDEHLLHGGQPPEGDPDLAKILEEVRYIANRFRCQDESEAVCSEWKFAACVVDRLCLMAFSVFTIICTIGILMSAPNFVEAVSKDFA

Molecular target: α-bungarotoxin (UniProt P60615)
Assay: pull-down; only the target purified

Substance | binding
α7 nicotinic acetylcholine receptor (mouse brain) (from UniProt P49582 23-502) | binds
α7 nicotinic acetylcholine receptor (human brain) (from UniProt P36544 23-502) | binds
